Data taken from patent US9320746B2, “Method for treating intestinal fibrosis” (Sigmoid Pharma Limited, priority 2013, dated 2016).
For at least one compound, name, drawing or mass did not settle the structure.

System: C57/B16 female mice
Experiment: DSS mouse model of fibrosis (Example 12)
Format: in vivo
[1] = 2.5% DSS 5 days, then 2 minispheres of Example 6 orally, vs natural recovery, FIG. 1

CCCC1O[C@@H]2C[C@H]3[C@@H]4CCC5=CC(=O)C=C[C@]5(C)[C@H]4[C@@H](O)C[C@]3(C)[C@]2(C(=O)CO)O1 (stereo partly drawn) [budesonide, 16,17-butylidendioxy-11β,21-dihydroxy-1,4-pregnadien-3,20-dione]
weight change after DSS administration was stopped [1]: nearly immediate improvement in the weight | weight recovered as percentage of original weight [1]: recovered to a higher percentage of their original weight compared to the natural recovery group | Disease Activity Index (DAI) score (2.5% DSS 5 days, then 2 minispheres of Example 6 orally, vs natural recovery, FIG. 2): much quicker reduction in the DAI score | colon weight (14 day recovery period, minispheres of Example 6, FIG. 3): effective in the 14 day recovery period | colon length (14 day recovery period, minispheres of Example 6, FIG. 4): effective in the 14 day recovery period | colon histology (Hematoxyline and Eosin) (14 days of recovery, minispheres of Example 6, FIG. 8): improved colonic health with a reduction in the colonic wall thickness and an ordered mucosa | collagen III level in colonic histology samples (minispheres of Example 6, vs DSS recovery group, unpaired t-test, one-tailed, FIG. 9): lower than the collagen III levels in the natural recovery group (DSS recovery) with statistical significance
